According to publication PMC12637047:

Target: T1, in vivo biotinylated Interferon Regulatory Factor 4 (IRF4) (mouse) (UniProt Q64287)
T1 sequence (chain, biotin on the Avi-tag (in vivo biotinylation by BirA ligase)): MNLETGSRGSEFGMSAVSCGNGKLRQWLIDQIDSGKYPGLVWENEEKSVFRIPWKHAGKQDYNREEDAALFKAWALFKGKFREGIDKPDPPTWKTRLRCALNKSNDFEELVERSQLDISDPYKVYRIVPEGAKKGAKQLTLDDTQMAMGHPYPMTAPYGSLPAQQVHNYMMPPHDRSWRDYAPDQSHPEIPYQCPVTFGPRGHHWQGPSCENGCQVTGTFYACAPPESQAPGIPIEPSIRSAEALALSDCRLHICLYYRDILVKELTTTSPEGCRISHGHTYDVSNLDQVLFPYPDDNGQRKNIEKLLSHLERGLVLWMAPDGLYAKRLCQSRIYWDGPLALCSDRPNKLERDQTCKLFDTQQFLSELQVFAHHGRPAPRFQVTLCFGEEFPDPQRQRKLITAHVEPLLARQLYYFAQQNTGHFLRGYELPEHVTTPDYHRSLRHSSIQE
Assay: affinity purification with mass spectrometry; cells crosslinked in situ with 0.75 mM DSP, nuclei isolated, lysed in RIPA buffer; biotinylated IRF4 captured on streptavidin-coated magnetic beads overnight at 4°C, washes with RIPA 0.35% SDS and 25 mM Tris; label-free DIA LC-MS; Bio versus Ctrl (ROSA26^BirA) by limma

For GTF2IRD1-isoform2, the binding was “binds”.

These are yes or no findings as the source states them, for the method shown. In cells and extracts the contact can be indirect. Here binding means that the protein was enriched with, or labelled near, the bait; the list need not be complete.
